These are yes or no findings as the source states them, for the method shown. Binding seen in cells or lysates may run through a third protein. Some binding calls cover weakened binding; strength is not graded here.

Sequences of proteins named here, by UniProt entry; tags and fusion partners are left off.
UniProt P06788: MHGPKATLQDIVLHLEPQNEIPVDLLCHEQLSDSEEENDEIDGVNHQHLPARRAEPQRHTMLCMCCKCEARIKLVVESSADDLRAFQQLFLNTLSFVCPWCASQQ

For 1 molecule, binding results are on record in publication PMC6530875.

In this experiment the target is HPV-18 E7 oncoprotein, wild type (human papillomavirus type 18 (endogenous in C4-1)) (UniProt P06788). In words: co-IP; lysates of wild type and CKII mutant C4-1 cells (50mM HEPES pH7.4, 150mM NaCl, 1mM MgCl2, 1mM NaF, 1% Triton-x-100); anti-HPV-18 E7 antibody overnight at 4°C, protein A beads 90 minutes at 4°C, four washes in lysis buffer; Western blot for pRB; anti-GFP IgG as control. Background: In western blotting, separated proteins are transferred to a membrane and probed.

B1: pRb (protein, UniProt P06400 1-928)
chain: MPPKTPRKTAATAAAAAAEPPAPPPPPPPEEDPEQDSGPEDLPLVRLEFEETEEPDFTALCQKLKIPDHVRERAWLTWEKVSSVDGVLGGYIQKKKELWGICIFIAAVDLDEMSFTFTELQKNIEISVHKFFNLLKEIDTSTKVDNAMSRLLKKYDVLFALFSKLERTCELIYLTQPSSSISTEINSALVLKVSWITFLLAKGEVLQMEDDLVISFQLMLCVLDYFIKLSPPMLLKEPYKTAVIPINGSPRTPRRGQNRSARIAKQLENDTRIIEVLCKEHECNIDEVKNVYFKNFIPFMNSLGLVTSNGLPEVENLSKRYEEIYLKNKDLDARLFLDHDKTLQTDSIDSFETQRTPRKSNLDEEVNVIPPHTPVRTVMNTIQQLMMILNSASDQPSENLISYFNNCTVNPKESILKRVKDIGYIFKEKFAKAVGQGCVEIGSQRYKLGVRLYYRVMESMLKSEEERLSIQNFSKLLNDNIFHMSLLACALEVVMATYSRSTSQNLDSGTDLSFPWILNVLNLKAFDFYKVIESFIKAEGNLTREMIKHLERCEHRIMESLAWLSDSPLFDLIKQSKDREGPTDHLESACPLNLPLQNNHTAADMYLSPVRSPKKKGSTTRVNSTANAETQATSAFQTQKPLKSTSLSLFYKKVYRLAYLRLNTLCERLLSEHPELEHIIWTLFQHTLQNEYELMRDRHLDQIMMCSMYGICKVKNIDLKFKIIVTAYKDLPHAVQETFKRVLIKEEEYDSIIVFYNSVFMQRLKTNILQYASTRPPTLSPIPHIPRSPYKFPSSPLRIPGGNIYISPLKSPYKISEGLPTPTKMTPRSRILVSIGESFGTSEKFQKINQMVCNSDRVLKRSAEGSNPPKPLKKLRFDIEGSDEADGSKHLPGESKFQQKLAEMTSTRTRMQKQKMNDSMDTSNKEEK
For B1, the binding entry is on record as “binds”.
